Results deposited as PubChem BioAssay AID1259308 (NCATS, 2017).

- Test: 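Genes whose loss raises luciferase production in HEK293 cells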 (primary screen)
- Cells: human HEK293 embryonic kidney cells stably expressing firefly luciferase (HEK-CMV-Luc2-Hygro)
- Reagents: single siRNA against human genes, 0.8 pmol siRNA per well
- Time to read-out: 72 h
- Measurement: 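Reporter luminescence and viable-cell signal on separate replicate plates, given as percent of non-targeting control and median/MAD z-scores, plus per-cell luciferase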
- Scale: total luciferase, z-score and total luciferase, % of control: higher = more reporter protein produced
- Hit rule: 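Active when the median/MAD z-score for overall luciferase is greater than 3; a gene was taken forward for validation with new siRNAs if at least two of its three siRNAs passed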
- Meaning of the calls: active = raised luciferase; inactive = no rise
Shown is one part, drawn at random, of about 59,000 reagents. Of all reagents, about 1,510 (2.6%) are marked active. 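Calls use total luciferase alone and ignore viability, so some active siRNAs may act by altering cell number.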 Reagents against one gene are numbered here. Not all columns of the deposit are shown.

{"gene symbol": "CCBE1", "siRNA no.": 1, "total luciferase, z-score": -1.18, "total luciferase, % of control": 58.5, "call": "inactive"}
{"gene symbol": "CCBE1", "siRNA no.": 2, "total luciferase, z-score": -1.21, "total luciferase, % of control": 57.8, "call": "inactive"}
{"gene symbol": "CCBE1", "siRNA no.": 3, "total luciferase, z-score": 0.457, "total luciferase, % of control": 91, "call": "inactive"}
{"gene symbol": "RASL11A", "siRNA no.": 1, "total luciferase, z-score": 0.484, "total luciferase, % of control": 91.5, "call": "inactive"}
{"gene symbol": "RASL11A", "siRNA no.": 2, "total luciferase, z-score": -2.04, "total luciferase, % of control": 41.4, "call": "inactive"}
{"gene symbol": "RASL11A", "siRNA no.": 3, "total luciferase, z-score": 0.73, "total luciferase, % of control": 96.4, "call": "inactive"}
{"gene symbol": "COX6A2", "siRNA no.": 1, "total luciferase, z-score": -1.33, "total luciferase, % of control": 55.3, "call": "inactive"}
{"gene symbol": "COX6A2", "siRNA no.": 2, "total luciferase, z-score": -0.432, "total luciferase, % of control": 73.3, "call": "inactive"}
{"gene symbol": "COX6A2", "siRNA no.": 3, "total luciferase, z-score": -0.474, "total luciferase, % of control": 72.5, "call": "inactive"}
{"gene symbol": "LIMCH1", "siRNA no.": 1, "total luciferase, z-score": -1.02, "total luciferase, % of control": 61.5, "call": "inactive"}
{"gene symbol": "LIMCH1", "siRNA no.": 2, "total luciferase, z-score": 1.01, "total luciferase, % of control": 102, "call": "inactive"}
{"gene symbol": "LIMCH1", "siRNA no.": 3, "total luciferase, z-score": -1.27, "total luciferase, % of control": 56.6, "call": "inactive"}
{"gene symbol": "CD96", "siRNA no.": 1, "total luciferase, z-score": -2.3, "total luciferase, % of control": 36.1, "call": "inactive"}
{"gene symbol": "CD96", "siRNA no.": 2, "total luciferase, z-score": 1.22, "total luciferase, % of control": 106, "call": "inactive"}
{"gene symbol": "CD96", "siRNA no.": 3, "total luciferase, z-score": 0.243, "total luciferase, % of control": 86.7, "call": "inactive"}
{"gene symbol": "BPIFC", "siRNA no.": 1, "total luciferase, z-score": 0.555, "total luciferase, % of control": 92.9, "call": "inactive"}
{"gene symbol": "BPIFC", "siRNA no.": 2, "total luciferase, z-score": 0.393, "total luciferase, % of control": 89.7, "call": "inactive"}
{"gene symbol": "BPIFC", "siRNA no.": 3, "total luciferase, z-score": 0.0016, "total luciferase, % of control": 81.9, "call": "inactive"}
{"gene symbol": "MLLT11", "siRNA no.": 1, "total luciferase, z-score": 0.273, "total luciferase, % of control": 87.3, "call": "inactive"}
{"gene symbol": "MLLT11", "siRNA no.": 2, "total luciferase, z-score": -0.159, "total luciferase, % of control": 78.7, "call": "inactive"}
{"gene symbol": "MLLT11", "siRNA no.": 3, "total luciferase, z-score": 0.326, "total luciferase, % of control": 88.4, "call": "inactive"}

An excerpt from above, limited to “total luciferase, % of control”.
LIMCH1 #2: 102
LIMCH1 #3: 56.6
